Data as given in PubChem BioAssay AID1259254 (NCATS, 2017).
Test: 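Genome-wide screen for genes that prevent DNA re-replication in cancer cells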 (primary screen). System: human HCT116 colorectal cancer cells. Reagent: single siRNA against human genes. Timing: 3 days. Measurement: 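Imaged Hoechst DNA stain sorts each cell into a cycle phase by DNA amount; per plate, G2 fraction set to 0% for non-targeting and 100% for GMNN siRNA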. Direction: G2 robust z-score and G2 cells, % of GMNN control: higher = more G2 cells, more excess DNA replication; raw share of cells in G2: higher = larger share of cells with G2 DNA content. Call rule: 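An siRNA counts as active if its G2 robust z-score lies at least 5 MADs above the screen median; here such calls match roughly 38% of GMNN control or more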.
The whole screen tested about 59,000 reagents; this is an unselected part. About 1,550 of them (2.6%) were called active. 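G2 share is only a proxy for re-replication; each gene was hit by three separate siRNAs, and active genes were retested.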 The raw values are shown without normalisation. Reagents against one gene are numbered here. The record does not give: the amount of reagent.

gene | reagent | G2 robust z-score | G2 cells, % of GMNN control | raw share of cells in G2 (%) | Call
ALPK3 | 1 | 0.205 | 4.41 | 6.96 | inactive
ALPK3 | 2 | -0.862 | -3.09 | 4.07 | inactive
ALPK3 | 3 | -0.699 | -1.95 | 3.06 | inactive
DBT | 1 | 0.626 | 7.38 | 7.59 | inactive
DBT | 2 | -0.302 | 0.843 | 5.3 | inactive
DBT | 3 | -0.64 | -1.54 | 3.57 | inactive
CERK | 1 | 1.15 | 11 | 7.22 | inactive
CERK | 2 | -0.344 | 0.547 | 5.76 | inactive
CERK | 3 | -0.631 | -1.47 | 4.66 | inactive
UBE2NL | 1 | 0.151 | 4.03 | 5.16 | inactive
UBE2NL | 2 | -0.794 | -2.62 | 3.51 | inactive
UBE2NL | 3 | -0.194 | 1.6 | 4.32 | inactive
IPMK | 1 | 0.568 | 6.96 | 7.75 | inactive
IPMK | 2 | -0.992 | -4.01 | 3.73 | inactive
IPMK | 3 | 0.0985 | 3.66 | 4.85 | inactive
CEP19 | 1 | 4.6 | 35.3 | 14.1 | inactive
CEP19 | 2 | -0.224 | 1.39 | 4.67 | inactive
CEP19 | 3 | -0.605 | -1.29 | 2.6 | inactive
PCGF5 | 1 | -0.07 | 2.47 | 4.41 | inactive
PCGF5 | 2 | 0.389 | 5.7 | 4.81 | inactive
PCGF5 | 3 | -1.08 | -4.64 | 3.81 | inactive
CPO | 1 | -0.581 | -1.12 | 5.12 | inactive
CPO | 2 | 1.62 | 14.4 | 9.21 | inactive
CPO | 3 | -0.779 | -2.52 | 3.32 | inactive
CRYBA2 | 1 | -0.408 | 0.098 | 5.35 | inactive
CRYBA2 | 2 | 1.07 | 10.5 | 7.93 | inactive
CRYBA2 | 3 | -0.621 | -1.4 | 2.97 | inactive
LRRC46 | 1 | -0.969 | -3.85 | 2.45 | inactive
LRRC46 | 2 | -0.285 | 0.959 | 3.3 | inactive
LRRC46 | 3 | -0.648 | -1.59 | 2.42 | inactive
MPC2 | 1 | 4.38 | 33.8 | 15.1 | inactive
MPC2 | 2 | -0.77 | -2.45 | 3.49 | inactive
MPC2 | 3 | -0.512 | -0.635 | 3.66 | inactive
GTF2F2P2 | 1 | 4.37 | 33.7 | 16.8 | inactive
GTF2F2P2 | 2 | -0.817 | -2.78 | 2.42 | inactive
GTF2F2P2 | 3 | 3.72 | 29.2 | 14.5 | inactive
ERFL | 1 | -1.11 | -4.84 | 2.05 | inactive
ERFL | 2 | 0.324 | 5.24 | 5.6 | inactive
ERFL | 3 | 3.9 | 30.4 | 17.4 | inactive
MTX1 | 1 | 0.38 | 5.64 | 7.71 | inactive
MTX1 | 2 | 1.68 | 14.8 | 11.1 | inactive
MTX1 | 3 | -0.536 | -0.802 | 2.93 | inactive

Only “G2 robust z-score” (8 entries from above):
LRRC46 #2	-0.285
LRRC46 #3	-0.648
MPC2 #1	4.38
MPC2 #2	-0.77
MPC2 #3	-0.512
GTF2F2P2 #1	4.37
GTF2F2P2 #2	-0.817
GTF2F2P2 #3	3.72

Additional reagents follow:
gene | reagent | G2 robust z-score | G2 cells, % of GMNN control | raw share of cells in G2 (%) | Call
AMIGO1 | 1 | -0.0999 | 2.26 | 6.58 | inactive
AMIGO1 | 2 | 1.43 | 13 | 8.96 | inactive
AMIGO1 | 3 | 1.03 | 10.2 | 7.93 | inactive
PYCR3 | 1 | -0.826 | -2.85 | 4.47 | inactive
PYCR3 | 2 | 2.6 | 21.2 | 11.9 | inactive
PYCR3 | 3 | 2.6 | 21.3 | 11.9 | inactive
MRPS21 | 1 | 0.714 | 7.99 | 5.83 | inactive
MRPS21 | 2 | 3.23 | 25.7 | 12.8 | inactive
MRPS21 | 3 | -0.016 | 2.85 | 5.47 | inactive
CHI3L1 | 1 | 0.232 | 4.6 | 5.68 | inactive
CHI3L1 | 2 | 1.16 | 11.1 | 8.94 | inactive
CHI3L1 | 3 | 0.254 | 4.76 | 6.73 | inactive
RNF113B | 1 | 0.0525 | 3.34 | 6.1 | inactive
RNF113B | 2 | -0.433 | -0.0781 | 4.67 | inactive
RNF113B | 3 | -0.856 | -3.05 | 4.5 | inactive
HSF1 | 1 | 3.53 | 27.8 | 15.1 | inactive
HSF1 | 2 | -0.15 | 1.91 | 6.41 | inactive
HSF1 | 3 | 0.0844 | 3.56 | 5.51 | inactive
RPS18P12 | 1 | -0.445 | -0.167 | 3.72 | inactive
RPS18P12 | 2 | -0.643 | -1.56 | 2.73 | inactive
RPS18P12 | 3 | -1.15 | -5.13 | 2.43 | inactive
LOC400965 (retired record) | 1 | -0.581 | -1.12 | 2.77 | inactive
LOC400965 (retired record) | 2 | 0.299 | 5.07 | 6.08 | inactive
LOC400965 (retired record) | 3 | -0.63 | -1.47 | 2.72 | inactive
CRHR1 | 1 | 0.45 | 6.13 | 8.03 | inactive
CRHR1 | 2 | 2.4 | 19.8 | 11.5 | inactive
CRHR1 | 3 | -0.598 | -1.24 | 2.89 | inactive
